According to PMC8668967:
No constants are given. Whether binding was seen depends on the method and setting. In cells and extracts the contact can be indirect. Some binding calls cover weakened binding; strength is not graded here.

Amino acid sequences for entries named in this document (tags omitted).
UniProt P60484: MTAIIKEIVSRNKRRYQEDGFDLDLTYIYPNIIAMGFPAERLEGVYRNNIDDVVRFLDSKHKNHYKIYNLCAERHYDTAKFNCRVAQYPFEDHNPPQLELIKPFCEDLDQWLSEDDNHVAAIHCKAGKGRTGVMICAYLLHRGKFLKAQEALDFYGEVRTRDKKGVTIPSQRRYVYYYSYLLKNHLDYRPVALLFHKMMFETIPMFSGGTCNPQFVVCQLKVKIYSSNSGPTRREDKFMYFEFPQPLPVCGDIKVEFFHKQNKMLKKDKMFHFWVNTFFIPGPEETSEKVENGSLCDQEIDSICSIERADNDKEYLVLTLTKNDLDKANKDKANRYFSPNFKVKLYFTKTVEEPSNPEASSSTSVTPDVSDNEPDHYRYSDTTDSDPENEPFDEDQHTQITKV

Target: PTEN (phosphatase and tensin homolog on chromosome ten) (human (endogenous in HCC cells)) (UniProt P60484)
Assay: co-IP; endogenous proteins in HCC cell lysate (IP lysis buffer); antibodies against p62, LAMP2A, LC3B or PTEN on protein G magnetic beads, overnight at 4 °C, washed with NT2 buffer (50 mM Tris-HCl pH 7.4, 150 mM NaCl, 1 mM MgCl2, 0.05% NP40), western blot; also done in RP11-295G20.2 knockout cells (association decreased) and RP11-295G20.2-overexpressing cells (association increased)

For p62 (from UniProt Q13501 1-440), the binding was “binds”.
